In article PMC7501817:
These are yes or no findings as the source states them, for the method shown. For some assays here: Binding can be weak; no strength is given. For some assays here: Tags and fused reporters may be left off the sequences shown. For some assays here: In cells and extracts the contact can be indirect.

Legend:
[1] = target: T1, catalase 1 (CAT1), full-length CDS in pGBKT7 (Nicotiana tabacum) (UniProt P49319); test: two-hybrid
T1 sequence: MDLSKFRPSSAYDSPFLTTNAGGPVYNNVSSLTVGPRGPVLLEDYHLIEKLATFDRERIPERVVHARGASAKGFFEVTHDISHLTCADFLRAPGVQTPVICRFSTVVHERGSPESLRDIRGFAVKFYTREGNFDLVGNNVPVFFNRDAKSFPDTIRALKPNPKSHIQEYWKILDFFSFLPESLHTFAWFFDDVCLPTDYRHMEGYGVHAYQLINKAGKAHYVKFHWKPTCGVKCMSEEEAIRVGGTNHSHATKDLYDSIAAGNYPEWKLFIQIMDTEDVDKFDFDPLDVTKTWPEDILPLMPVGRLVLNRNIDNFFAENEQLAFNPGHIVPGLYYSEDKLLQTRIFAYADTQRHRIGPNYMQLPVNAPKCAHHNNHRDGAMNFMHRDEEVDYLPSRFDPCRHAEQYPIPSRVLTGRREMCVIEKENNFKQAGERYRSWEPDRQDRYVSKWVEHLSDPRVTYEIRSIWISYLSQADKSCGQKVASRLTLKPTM

[2] = target: T2, CAT1–nYFP (Nicotiana tabacum) (UniProt P49319); test: split reporter; BiFC; CAT–nYFP and HCPro–cYFP co-infiltrated by Agrobacterium into N. benthamiana leaves; YFP fluorescence by confocal microscopy after at least 48 h
T2 sequence: T1 sequence

[3] = target: T3, CAT1–GST (Nicotiana tabacum) (UniProt P49319); test: pull-down; condition: approximately 10 μg of GST fusion protein in 500 μl; […]; 50 mM Tris–HCl pH 6.8, 300 mM NaCl, 1.5% glycerol, 0.6% Triton-X 100, 0.1% Tween; 2 h at 4 °C; […]; both purified
T3 sequence: T1 sequence

[4] = target: GST–HCPro (Chilli veinal mottle virus); test: pull-down; GST pull-down; GST–HCPro held on GST beads, CAT–MBP or MBP in solution; 50 mM Tris–HCl pH 6.8, 300 mM NaCl, 1.5% glycerol, 0.6% Triton-X 100, 0.1% Tween; 2 h at 4 °C; blot with anti-MBP and anti-GST; both purified

How did the binding [1] turn out when “Chilli veinal mottle virus helper component proteinase (HCPro), full-length CDS in pGADT7” was run?
The binding was “binds”.

With HCPro–cYFP (Chilli veinal mottle virus) as the molecule, how does the binding [2] read?
The binding was “binds”.

Which binding [3] does the source give for “N-terminus of HCPro (HC-N, amino acids 1–100) with MBP tag (Chilli veinal mottle virus) (domain or fragment)” here?
The binding was “no binding”.

Which binding [3] does the source give for “central region of HCPro (residues 101–300) with MBP tag (Chilli veinal mottle virus) (domain or fragment)” here?
Its binding is “no binding”.

B1: CAT1–MBP (enzyme, UniProt P49319 1-492)
chain: T1 sequence
Which binding [4] does the source give for B1 here?
The binding was “binds”.
